Results deposited as PubChem BioAssay AID1259405 (NCATS, 2018)
Here is one part, drawn at random, of about 50,000 deposited reagents. Of all reagents, about 4,000 (8%) were called active. 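Mouse siRNA library applied to hamster cells; one well for each siRNA.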 A number with no mark means an inactive call. The numbers tell different reagents against one gene apart.

Purpose: 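Mouse-designed siRNAs used to find CHO productivity engineering targets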 (primary screen)
System: Chinese hamster CHO-K1 ovary cells with stable secreted eGFP expression
Knock-down reagent: single siRNA against mouse genes, 0.8 pmol siRNA per well (2 µl of 400 nM stock)
Duration: 3 days
Measured: 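Percent of the per-plate non-targeting control median for intracellular GFP per well by laser scanning cytometry and for cell viability by ATP luminescence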
Direction: GFP, % of control: higher = more GFP per well, higher productivity; viability (ATP), % of control: higher = more viable cells (more ATP)
Rule for the call: 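Called active when intracellular GFP, relative to negative control, is at or above 120%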

Gene	reagent no.	GFP, % of control	viability (ATP), % of control
Gpc5	1	57.8	93.5
Gpc5	2	93	81.3
Gpc5	3	49.2	65.3
Zfp532	1	66.3	92.3
Zfp532	2	102	97.2
Zfp532	3	61.3	65.4
Zfp318	1	46.7	52.5
Zfp318	2	105	60
Zfp318	3	96.4	93.6
Hnrnpab	1	74.1	56.1
Hnrnpab	2	47.2	86.2
Hnrnpab	3	115	94.6
Chmp2a	1	24	15.6
Chmp2a	2	160 (active)	133
Chmp2a	3	55	56.9
Slc6a17	1	84	93.7
Slc6a17	2	90.9	102
Slc6a17	3	127 (active)	70.6
Ssu72	1	75.7	80.5
Ssu72	2	74.4	70.4
Scyl3	1	59.5	79.3
Scyl3	2	80.9	94.7
Scyl3	3	70.5	106
Or3a1c	1	118	75.7
Or3a1c	2	81.6	75.8
Or3a1c	3	135 (active)	72.5
Zfhx4	1	207 (active)	70.7
Zfhx4	2	75.1	75.4
Zfhx4	3	54.4	47.8
Esyt2	1	64.1	65.7
Esyt2	2	82.6	59.4
Esyt2	3	78.9	75.4
Cox14	1	171 (active)	89
Cox14	2	136 (active)	119
Cox14	3	71.9	76.7
Gabrr2	1	91.2	65.5
Gabrr2	2	56.4	25.8
Gabrr2	3	74.3	41.1

Copied from the list.
Result of Ssu72 #1 under “viability (ATP), % of control”: 80.5
Value for Slc6a17 #2 in “viability (ATP), % of control”: 102
Under “GFP, % of control”, Slc6a17 #1 is entered as 84

Continued:
Gene	reagent no.	GFP, % of control	viability (ATP), % of control
Il27ra	1	94.2	85
Il27ra	2	70.2	47.7
Il27ra	3	74.2	32.7
Hspbp1	1	73.5	59.2
Hspbp1	2	84.1	66.5
Myo9a	1	43.9	61.3
Myo9a	2	52.6	84
Myo9a	3	41.1	50.4
Tln2	1	90.2	85.5
Tln2	2	90	78
Adgrl3	1	79.6	55.2
Adgrl3	2	55.5	65.6
Adgrl3	3	37.4	32.3
Lap3	1	75.6	96
Lap3	2	75.3	68.5
Lap3	3	80.4	77.3
Six1	1	88.6	85.5
Six1	2	83.9	42.7
Six1	3	84.9	91.1
